No constants are given. Whether binding was seen depends on the method and setting. Binding seen in cells or lysates may run through a third protein. Some results given as binding are weak or reduced against the parent protein; the word gives no strength.

The chains behind the UniProt entries cited, without tags or fusion partners. Where a name states a change or a piece, a line headed by the entry shows the natural chain unless it says otherwise.
UniProt Q9UKV8: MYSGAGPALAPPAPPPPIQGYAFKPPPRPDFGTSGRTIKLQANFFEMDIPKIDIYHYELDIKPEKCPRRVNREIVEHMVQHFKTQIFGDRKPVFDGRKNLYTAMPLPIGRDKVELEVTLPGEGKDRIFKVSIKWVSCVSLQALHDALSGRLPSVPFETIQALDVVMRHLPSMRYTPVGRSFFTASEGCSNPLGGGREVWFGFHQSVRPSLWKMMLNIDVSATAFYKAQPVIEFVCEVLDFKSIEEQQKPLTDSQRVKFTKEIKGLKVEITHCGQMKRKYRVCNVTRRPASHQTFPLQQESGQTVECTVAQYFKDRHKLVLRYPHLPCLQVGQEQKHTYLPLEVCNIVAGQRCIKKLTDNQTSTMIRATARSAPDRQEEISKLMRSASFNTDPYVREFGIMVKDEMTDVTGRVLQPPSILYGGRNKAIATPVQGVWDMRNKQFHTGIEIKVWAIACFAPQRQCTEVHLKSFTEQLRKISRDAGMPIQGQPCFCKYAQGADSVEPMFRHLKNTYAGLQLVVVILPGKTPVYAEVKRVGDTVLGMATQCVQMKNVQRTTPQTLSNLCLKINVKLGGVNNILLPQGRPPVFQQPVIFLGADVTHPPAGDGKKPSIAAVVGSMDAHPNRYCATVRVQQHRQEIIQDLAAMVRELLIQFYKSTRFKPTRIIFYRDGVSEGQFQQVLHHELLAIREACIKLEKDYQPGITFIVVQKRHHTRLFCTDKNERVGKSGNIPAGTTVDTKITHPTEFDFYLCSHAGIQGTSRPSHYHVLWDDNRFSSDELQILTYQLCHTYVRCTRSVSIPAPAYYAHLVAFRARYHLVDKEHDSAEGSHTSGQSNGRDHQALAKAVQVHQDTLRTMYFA

Test [1] addresses FLAG-tagged AGO2-WT (wild-type Argonaute 2) (UniProt Q9UKV8). The test is described as follows: co-IP; FLAG-tagged AGO2 constructs or GFP transfected into HEK293T; lysis in modRIPA buffer 48 h after transfection; anti-FLAG M2 magnetic beads, 4 °C overnight; washed five times with TBS; beads with or without RNase A/T1 (20 min, room temperature); Western blot for TUT4, TUT7 and AGO2. On the technique in general: Immunoblotting shows a protein as a band on a membrane.

Test [2] has as its target FLAG-tagged AGO2-F2L3 (AGO2 PAZ mutant, F294A and L339A) (UniProt Q9UKV8). The description is as above.

B1: endogenous TUT7 (ZCCHC6/TENT3B/PAPD6) (enzyme, UniProt Q5VYS8 1-1495)
chain: MGDTAKPYFVKRTKDRGTMDDDDFRRGHPQQDYLIIDDHAKGHGSKMEKGLQKKKITPGNYGNTPRKGPCAVSSNPYAFKNPIYSQPAWMNDSHKDQSKRWLSDEHTGNSDNWREFKPGPRIPVINRQRKDSFQENEDGYRWQDTRGCRTVRRLFHKDLTSLETTSEMEAGSPENKKQRSRPRKPRKTRNEENEQDGDLEGPVIDESVLSTKELLGLQQAEERLKRDCIDRLKRRPRNYPTAKYTCRLCDVLIESIAFAHKHIKEKRHKKNIKEKQEEELLTTLPPPTPSQINAVGIAIDKVVQEFGLHNENLEQRLEIKRIMENVFQHKLPDCSLRLYGSSCSRLGFKNSDVNIDIQFPAIMSQPDVLLLVQECLKNSDSFIDVDADFHARVPVVVCREKQSGLLCKVSAGNENACLTTKHLTALGKLEPKLVPLVIAFRYWAKLCSIDRPEEGGLPPYVFALMAIFFLQQRKEPLLPVYLGSWIEGFSLSKLGNFNLQDIEKDVVIWEHTDSAAGDTGITKEEAPRETPIKRGQVSLILDVKHQPSVPVGQLWVELLRFYALEFNLADLVISIRVKELVSRELKDWPKKRIAIEDPYSVKRNVARTLNSQPVFEYILHCLRTTYKYFALPHKITKSSLLKPLNAITCISEHSKEVINHHPDVQTKDDKLKNSVLAQGPGATSSAANTCKVQPLTLKETAESFGSPPKEEMGNEHISVHPENSDCIQADVNSDDYKGDKVYHPETGRKNEKEKVGRKGKHLLTVDQKRGEHVVCGSTRNNESESTLDLEGFQNPTAKECEGLATLDNKADLDGESTEGTEELEDSLNHFTHSVQGQTSEMIPSDEEEEDDEEEEEEEEPRLTINQREDEDGMANEDELDNTYTGSGDEDALSEEDDELGEAAKYEDVKECGKHVERALLVELNKISLKEENVCEEKNSPVDQSDFFYEFSKLIFTKGKSPTVVCSLCKREGHLKKDCPEDFKRIQLEPLPPLTPKFLNILDQVCIQCYKDFSPTIIEDQAREHIRQNLESFIRQDFPGTKLSLFGSSKNGFGFKQSDLDVCMTINGLETAEGLDCVRTIEELARVLRKHSGLRNILPITTAKVPIVKFFHLRSGLEVDISLYNTLALHNTRLLSAYSAIDPRVKYLCYTMKVFTKMCDIGDASRGSLSSYAYTLMVLYFLQQRNPPVIPVLQEIYKGEKKPEIFVDGWNIYFFDQIDELPTYWSECGKNTESVGQLWLGLLRFYTEEFDFKEHVISIRRKSLLTTFKKQWTSKYIVIEDPFDLNHNLGAGLSRKMTNFIMKAFINGRRVFGIPVKGFPKDYPSKMEYFFDPDVLTEGELAPNDRCCRICGKIGHFMKDCPMRRKVRRRRDQEDALNQRYPENKEKRSKEDKEIHNKYTEREVSTKEDKPIQCTPQKAKPMRAAADLGREKILRPPVEKWKRQDDKDLREKRCFICGREGHIKKECPQFKGSSGSLSSKYMTQGKASAKRTQQES
With B1, the binding entry in test [1] and in test [2] was “binds” each time.

Values taken from publication PMC7265490.
